Target: T1, Panx1 (Mus musculus, UniProt Q9JIP4)
T1 construct: BV2 microglia were maintained in DMEM media (Gibco) containing 10% FBS; endogenous in cells; host or cells: BV-2 microglia
Type: cell-based
Details: morphine 10 μM once a day for 5 days; BzATP 150 μM

Protein sequences, listed by entry. Tags and fused reporters are not part of them.
UniProt Q9JIP4, whole entry: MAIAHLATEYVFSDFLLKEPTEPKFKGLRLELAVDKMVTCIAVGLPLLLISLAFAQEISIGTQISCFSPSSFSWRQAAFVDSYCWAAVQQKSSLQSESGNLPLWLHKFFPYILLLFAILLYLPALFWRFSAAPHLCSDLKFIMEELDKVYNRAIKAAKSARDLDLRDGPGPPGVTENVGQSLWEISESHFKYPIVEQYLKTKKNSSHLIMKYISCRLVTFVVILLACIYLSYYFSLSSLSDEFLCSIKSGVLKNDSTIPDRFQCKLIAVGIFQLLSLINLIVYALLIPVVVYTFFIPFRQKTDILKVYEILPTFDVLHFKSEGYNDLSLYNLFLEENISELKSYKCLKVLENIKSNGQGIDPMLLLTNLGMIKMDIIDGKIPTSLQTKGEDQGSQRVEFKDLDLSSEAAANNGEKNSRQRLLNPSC

Compound: CN1CC[C@]23c4c5ccc(O)c4O[C@H]2[C@@H](O)C=C[C@H]3[C@H]1C5 [morphine]
- BzATP-evoked YO-PRO-1 uptake, morphine vs saline-treated microglia: significantly greater uptake
